# According to US6762176B1, “2-aminopyridine derivatives, their use as medicines and pharmaceutical compositions containing them” (Societe de Consells de Recherches et D'Applications …, priority 1998, dated 2004):
# Structures can show the parent of a compound that is named as a salt. Some results were stated once for a whole list of compounds, not compound by compound.
# Columns and labels:
# [1] = test system: lipidic peroxidation of the cerebral cortex of a rat; assay: Effects on lipidic peroxidation of the cerebral cortex of a rat (MDA concentration); type: biochemical; conditions: rat cerebral cortex homogenate; peroxidation initiated by FeCl2/EDTA/ascorbic acid, 30 minutes at 37° C.; MDA colorimetric test
# [2] = biological target: T1, neuronal constitutive NO synthase (Rattus norvegicus, UniProt P29476); assay: Effects on neuronal constitutive NO synthase of a rat's cerebellum ([3H]L-arginine to [3H]L-citrulline conversion); type: biochemical; conditions: Sprague-Dawley rat cerebellum homogenate; conversion of [3H]L-arginine to [3H]L-citrulline, 15 min
# T1 construct: The reaction is initiated by adding 50 μl of homogenate; from tissue; host or cells: cerebellum of Sprague-Dawley rats (Charles River), supernatant of the homogenate after 21000 g
Molecule,IC50 [1],IC50 [2]
"Cc1cc(N)nc(CCCCC(=O)Nc2cc(C(C)(C)C)c(O)c(C(C)(C)C)c2)c1 [Example 1, 6-amino-N-[3,5-bis-(1,1-dimethylethyl)-4-hydroxyphenyl]-4-methyl-2-pyridinepentanamide hydrochloride]",< 30 µM,< 5 µM
"Cc1cc(N)nc(CCCC(=O)Nc2ccc(N(C)C)cc2)c1 [Example 3, 6-amino-N-[4-(dimethylamino)phenyl]-4-methyl-2-pyridinebutanamide hydrochloride]",,< 5 µM
"COc1ccc(O)c(C(=O)NCCCCc2cc(C)cc(N)n2)c1 [Example 8, N-1(6-amino-4-methyl-2-pyridinyl)butyl]-2-hydroxy-5-methoxy-benzamide hydrochloride]",,< 5 µM
"Cc1cc(N)nc(CCCCNC(=O)c2cc(O)ccc2O)c1 [Example 10, N-[(6-amino-4-methyl-2-pyridinyl)butyl]-2,5-dihydroxy-benzamide hydrochloride]",,< 5 µM
"Cc1cc(N)nc(CCCCNC(=O)c2cc(O)cc(C)c2O)c1 [Example 12, N-[(6-amino-4-methyl-2-pyridinyl)butyl]-2,5-dihydroxy-3-methyl-benzamide hydrochloride]",,< 5 µM
Cc1cc(N)nc(CCCCNC(=O)c2cc(O)cc(C(C)C)c2O)c1 [Example 13],< 30 µM,< 5 µM
"Cc1cc(N)nc(CCCCCC(=O)Nc2ccc(N(C)C)cc2)c1 [Example 21, 6-amino-N-[4-(dimethylamino)phenyl]4-methyl-2-pyridinehexanamide hydrochloride]",< 30 µM,< 5 µM
"Cc1cc(N)nc(CCCCNC(=O)c2ccc3c(c2)OCO3)c1.Cl [Example 23, N-[(6-amino-4-methyl-2-pyridinyl)butyl]-1,3-benzodioxole-5-carboxamide hydrochloride]",,< 5 µM
"Cc1cc(N)nc(CCCCC(=O)Nc2ccc(N(C)C)cc2)c1 [Example 24, 6-amino-N-[4-(dimethylamino)phenyl]-4-methyl-2-pyridinepentananamide hydrochloride]",< 30 µM,< 5 µM
"COc1cc(C=CCNCCCCc2cc(C)cc(N)n2)ccc1O [Example 26, 6-amino-N-[13-(4-hydroxy-3-metboxy-phenyl)-2-propenyl]4-methyl-2-pyridinebutanamine hydrochloride]",< 30 µM,< 5 µM
"Cc1cc(N)nc(CCCCNCc2ccc3c(c2)OCO3)c1.O=C(O)/C=C/C(=O)O [Example 29, N-[4-(6-amino-4-methyl-2-pyridinyl)butyl]-N-(1,3-benzodioxole-5-ylmethyl)amine fumarate]",,< 5 µM
"Cc1cc(N)nc(CCCCNC/C=C/c2ccccc2)c1.O=C(O)/C=C/C(=O)O [Example 30, N-[4-(6-amino-4-methyl-2-pyridinyl)butyl]-N-[(E)-3-phenyl-2-propenyl]amine fumarate]",,< 5 µM
"Cc1cc(N)nc(CCCCNC(=O)/C=C/c2ccc3c(c2)OCO3)c1.O=C(O)/C=C/C(=O)O [Example 31, (E)-N-[4-(6-amino-4-methyl-2-pyridinyl)butyl]-3-(1,3-benzodioxole-5-yl)-2-propenamide fumarate]",,< 5 µM
"COc1ccc(O)c(CNCCCCc2cc(C)cc(N)n2)c1 [Example 32, 2-({[4-(6-amino-4-methyl-2-pyridinyl)butyl]amino}methyl)-4-methoxyphenol]",,< 5 µM
"COc1cc(CNCCCCc2cc(C)cc(N)n2)c(OCc2ccccc2)cc1OC [Example 34, 6-(4-{[2-(benzyloxy)-4,5-dimethoxybenzyl]amino}butyl)-4-methyl-2-pyridinamine]",,< 5 µM
"COc1cc(O)c(CNCCCCc2cc(C)cc(N)n2)cc1OC [Example 35, 2-({[4-(6-amino-4-methyl-2-pyridinyl)butyl]amino}methyl)-4,5-dimethoxyphenol]",< 30 µM,< 5 µM
{[4-(6-amino-4-methyl-2-pyridinyl)butyl]amino}-N-[(4-dimethylamino)phenyl]-acetamide hydrochloride [Example 25],,< 5 µM
